Assay [1] has as its target T1, peptide immunogen … (human).
T1 sequence (peptide): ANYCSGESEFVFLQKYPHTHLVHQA
In words: ELISA, peptide coated at 2 ug/ml, Fab 0.016-10 ug/ml. (In general: In an ELISA, binding on a coated surface is turned into a signal by an enzyme label.)

Assay [2] addresses T2, recombinant mouse myostatin (R&D systems, Cat. #788-G8/CF, carrier-free) (mouse) (UniProt O08689).
T2 sequence (looked up): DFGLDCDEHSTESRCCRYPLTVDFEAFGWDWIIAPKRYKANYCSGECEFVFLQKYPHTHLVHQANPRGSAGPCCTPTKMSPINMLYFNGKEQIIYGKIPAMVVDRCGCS
Kind of assay: ELISA, myostatin coated at 1 ug/ml, Fab 0.016-10 ug/ml.

In assay [3] the target is T2, recombinant mouse myostatin (R&D systems, Cat. #788-G8/CF, carrier-free) (mouse). Kind of assay: ELISA, growth factor coated at 10 ug/ml, Fab at 10 ug/ml.

Our source for the binding values is patent publication US20070178095A1.

Where a chain is given by its changes, count along the chain named. No constants are given. Whether binding was seen depends on the method and setting. Some results given as binding are weak or reduced against the parent protein; the word gives no strength.

B1: Fab 7 (Fab, V domains shown)
VH: QVTLKSGPGILQSSQTLTLTCSLSGFSLTTSGMIVSWIRQSSGRGLEWLAHIYWDDDKRYNPSLRNRLTISKDTLRNQVFLWISSVGTADTATYYCARRAITTVIGGGTMDYWGQGTSVTVSS
VL: QIVLTQSPAIMSASPGEKVTMTCSASSSISYMHWYQQKPGTSPKRWIYDTSKLASGVPARFSGSGSGTSYSLTISSMEAEDAATYYCQQWYSNPLTFGAGTKLELKR
Take B1: the binding entry in assay [1], in assay [2] and in assay [3] was “binds” in each case.

B2: Fab 9 (Fab, V domains shown)
VH: QVTLKESGPGILQSSQTLSLTCSVSGFSLSTSGMSVSWIRQPSGKGLEWLAHIYWDDDKRYNPSLKSRLTISKDTSRNQVFLKITSVDTADTATYYCARRAITTVLGGGTMDYWGQGTSVTVSS
VL: B1 VL with I29V, P39S, A59V, Y91S, S92R
B2: the binding result in assay [1] is recorded as “binds”.
